The list shows a part of the results. Single values are uncertain here, since repeats match poorly.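 Human kidney-derived cells stably carry a construct in which eight TEAD-binding elements drive luciferase, measured by luminescence in a drug-repurposing library screen. A hit is any compound whose signal exceeds the plate mean by more than five robust Z scores.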

From the supplement of paper PMC10735217 come the findings set out here.

For the test, the system named is HEK293A TEAD-LUC reporter. Put plainly: TEAD-luciferase reporter activity (YAP activation), robust Z score vs plate; higher = stronger YAP/TEAD activation. The note with it: 24 h.

Turning to `CNC(=N)NC(=O)Nc1c(C)cccc1C` [lidamidine], the TEAD-luciferase reporter activity (compound concentration: 200 nM) is inactive: -0.13, the TEAD-luciferase reporter activity (compound concentration: 2 uM) was inactive: -0.611 and the TEAD-luciferase reporter activity (compound concentration: 10 uM) was inactive: 2.4.

Take `N#CCC(=O)N/N=C/c1c[n+]([O-])c2ccccc2[n+]1[O-]`: the TEAD-luciferase reporter activity is, setting by setting: (compound concentration: 200 nM) inactive: 0.138; (compound concentration: 2 uM) inactive: -0.66; (compound concentration: 10 uM) inactive: -0.496.

For `CCC1Cc2cc(CC(=O)O)ccc2O1` (stereo not given) [furofenac], the TEAD-luciferase reporter activity by setting is: (compound concentration: 200 nM) inactive: -1.23; (compound concentration: 2 uM) inactive: -0.991; (compound concentration: 10 uM) inactive: -1.48.

`Nc1ccc(S(=O)(=O)Nc2ccc(Cl)nn2)cc1`: the TEAD-luciferase reporter activity is, setting by setting: (compound concentration: 200 nM) inactive: -2.31; (compound concentration: 2 uM) inactive: -0.032; (compound concentration: 10 uM) inactive: 0.341.

With `CCCCNC(=O)NS(=O)(=O)c1ccc(N)cc1`, the TEAD-luciferase reporter activity (compound concentration: 200 nM) is inactive: -0.306, the TEAD-luciferase reporter activity (compound concentration: 2 uM) is inactive: 2.26 and the TEAD-luciferase reporter activity (compound concentration: 10 uM) was inactive: 3.58.

For `CS(=O)CC(=O)c1ccccn1` (stereo not given), the TEAD-luciferase reporter activity reads like this: (compound concentration: 200 nM) inactive: -1.61; (compound concentration: 2 uM) inactive: 2.88; (compound concentration: 10 uM) inactive: -1.51.

As for `COc1cc(C[C@@H](CO[C@@H]2O[C@H](CO)[C@@H](O)[C@H](O)[C@H]2O)[C@H](CO[C@@H]2O[C@H](CO)[C@@H](O)[C@H](O)[C@H]2O)Cc2ccc(O)c(OC)c2)ccc1O` [Secoisolariciresinol diglucoside], the TEAD-luciferase reporter activity is, setting by setting: (compound concentration: 200 nM) inactive: -0.664; (compound concentration: 2 uM) inactive: -1.23; (compound concentration: 10 uM) inactive: -1.24.

Take `OC[C@H]1O[C@@H](n2cnc3c(NC4CCCCC4)ncnc32)[C@H](O)[C@@H]1O`: the TEAD-luciferase reporter activity was inactive: 0.18 (compound concentration: 200 nM), inactive: -1.47 (compound concentration: 2 uM) and inactive: -1.4 (compound concentration: 10 uM).

As for `NC(=O)C(=O)N/N=C/c1ccc([N+](=O)[O-])o1` [Furamazone], the TEAD-luciferase reporter activity by setting is: (compound concentration: 200 nM) inactive: 0.0911; (compound concentration: 2 uM) inactive: 0.185; (compound concentration: 10 uM) inactive: 2.11.

Regarding `O=C(N[C@@H](Cc1ccc(O)cc1)C(=O)O)c1ccc(-c2ccc(C(F)(F)F)cc2)cc1`, the TEAD-luciferase reporter activity is, setting by setting: (compound concentration: 200 nM) inactive: -0.858; (compound concentration: 2 uM) inactive: -0.773; (compound concentration: 10 uM) inactive: -0.566.

Turning to `CCc1oc2ccccc2c1C(=O)c1cc(I)c(O)c(I)c1`, the TEAD-luciferase reporter activity by setting is: (compound concentration: 200 nM) inactive: -1.02; (compound concentration: 2 uM) inactive: -1.36; (compound concentration: 10 uM) inactive: -2.42.

Take `Clc1cc(Cl)c2c(c1)N=C1CCCCCN1C2`: the TEAD-luciferase reporter activity is inactive: 1.02 (compound concentration: 200 nM), inactive: -0.965 (compound concentration: 2 uM) and inactive: 0.396 (compound concentration: 10 uM).

On to `Cc1c(Nc2ncc[nH]2)ccc2c1OCCO2`, for which the TEAD-luciferase reporter activity is, setting by setting: (compound concentration: 200 nM) inactive: 2.46; (compound concentration: 2 uM) inactive: -1.53; (compound concentration: 10 uM) inactive: -0.141.

With `Clc1ccc(C(Cn2ccnc2)OCc2csc3c(Cl)cccc23)c(Cl)c1` (stereo not given) [arasertaconazole], the TEAD-luciferase reporter activity (compound concentration: 2 uM) was inactive: -1.78.

As to `Clc1ccc(C(Cn2ccnc2)OCc2csc3c(Cl)cccc23)c(Cl)c1` (stereo not given) [Sertaconazole], the TEAD-luciferase reporter activity by setting is: (compound concentration: 200 nM) inactive: -1.07; (compound concentration: 10 uM) inactive: -0.559.

With `COc1ccccc1NS(=O)(=O)c1cccc(NC(=O)Nc2ccc(F)cc2)c1`, the TEAD-luciferase reporter activity is inactive: -0.754 (compound concentration: 200 nM), inactive: -1.13 (compound concentration: 2 uM) and inactive: -1.91 (compound concentration: 10 uM).

For `CCC(=O)SCC(=O)[C@@]1(O)CC[C@H]2[C@@H]3CCC4=CC(=O)CC[C@]4(C)[C@H]3[C@@H](O)C[C@@]21C`, the TEAD-luciferase reporter activity is inactive: 0.305 (compound concentration: 200 nM), inactive: 0.0994 (compound concentration: 2 uM) and inactive: 0.562 (compound concentration: 10 uM).

`CCCNC(=O)c1cnc2n1CCc1ccccc1C21CCNCC1`: the TEAD-luciferase reporter activity by setting is: (compound concentration: 200 nM) inactive: 1.25; (compound concentration: 2 uM) inactive: -1.72; (compound concentration: 10 uM) inactive: -0.226.

Turning to `CC1(C)SC2C(NC(=O)[C@H](C(=O)O)c3ccsc3)C(=O)N2C1C(=O)O` (stereo not given in full) [Timentin], the TEAD-luciferase reporter activity (compound concentration: 200 nM) was inactive: -0.285, the TEAD-luciferase reporter activity (compound concentration: 2 uM) was inactive: 0.0943 and the TEAD-luciferase reporter activity (compound concentration: 10 uM) was inactive: 3.42.

For `C[C@@H](O)C1C(=O)N2C(C(=O)O)=C(S[C@@H]3CN[C@H](C(=O)N(C)C)C3)[C@H](C)C12` (stereo not given in full) [Meropenem], for the setting “compound concentration: 2 uM”, the TEAD-luciferase reporter activity is inactive: 0.541.

Take `CCOc1ccc2nc(SC(C)(C(=O)O)c3ccccc3)sc2c1` (stereo not given) [tazasubrate]: the TEAD-luciferase reporter activity by setting is: (compound concentration: 200 nM) inactive: 3.45; (compound concentration: 2 uM) inactive: 1.81; (compound concentration: 10 uM) inactive: 4.51.

For `N=C(N)N1CCC[C@@H](CNC(=O)C[C@H](NS(=O)(=O)c2ccc3ccccc3c2)C(=O)N(CC(=O)O)C2CC2)C1`, the TEAD-luciferase reporter activity reads like this: (compound concentration: 200 nM) inactive: -2.06; (compound concentration: 2 uM) inactive: -1.02; (compound concentration: 10 uM) inactive: 0.294.

Consider `Cc1ccc2c(c1)C(=O)C([N+](=O)[O-])C2=O` (stereo not given), for which the TEAD-luciferase reporter activity (compound concentration: 200 nM) is active: 8.21, the TEAD-luciferase reporter activity (compound concentration: 2 uM) is inactive: -0.291 and the TEAD-luciferase reporter activity (compound concentration: 10 uM) was inactive: -1.02.

Consider `Cc1ncc(CSSCc2cnc(C)c(O)c2CO)c(CO)c1O`, for which the TEAD-luciferase reporter activity is, setting by setting: (compound concentration: 200 nM) inactive: -1.02; (compound concentration: 2 uM) inactive: 2.85; (compound concentration: 10 uM) inactive: 1.62.

Take `CC1(C)S[C@@H]2[C@H](/N=C/N3CCCCCC3)C(=O)N2[C@H]1C(=O)O` [mecillinam]: the TEAD-luciferase reporter activity (compound concentration: 2 uM) is inactive: -1.94.

As to `CC1(C)S[C@@H]2[C@H](/N=C/N3CCCCCC3)C(=O)N2[C@H]1C(=O)O`, the TEAD-luciferase reporter activity is, setting by setting: (compound concentration: 200 nM) inactive: -1.59; (compound concentration: 10 uM) inactive: -1.27.

Turning to `Cc1ccc(C(=O)N2CCC(C(=O)N3CCC(N4Cc5ccccc5C4=O)CC3)CC2)cc1`, the TEAD-luciferase reporter activity (compound concentration: 200 nM) was inactive: 1.03 and the TEAD-luciferase reporter activity (compound concentration: 10 uM) is inactive: -0.28.

On to `Cc1cc2c(C(N)=O)cccc2n1-c1nc2c(c(NCc3ccccc3)n1)COCC2`, for which the TEAD-luciferase reporter activity is, setting by setting: (compound concentration: 200 nM) inactive: -1.53; (compound concentration: 2 uM) inactive: -3.02; (compound concentration: 10 uM) inactive: -0.00137.
